# Values from PubChem BioAssay AID652243 (Drosophila RNAi Screening Center, 2013).
# Screen: 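Fly regulators of androgen-dependent reporter output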 (primary screen)
# System: Drosophila S2R+ cells
# Knock-down reagent: long dsRNA against Drosophila genes
# Time to read-out: 72 h (48 h, then 24 h hormone)
# Challenge: synthetic androgen R1881 at 10 nM for 24 h
# Measured: 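Firefly light from an androgen-responsive reporter and Renilla control light per well, raw and unnormalised, for each of two replicates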
# Reading the numbers: firefly reporter light: higher = more light from androgen-responsive reporter; Renilla control light: higher = more constitutive control signal (cell number, transfection)
# Hit rule: 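Across duplicate plates, a knock-down whose log firefly/Renilla ratio shifted a set fold down or up from the GFP/LacZ control mean was a hit; the downward cut appears as both 1.5 and 3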
# Meaning of the calls: active = hit: reporter lowered or raised; inactive = no hit
# The screen tested about 24,000 reagents; below is an unselected part of those with a known target gene and a result. Of all reagents, 246 (1%) were called active. 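Plates not normalised; calls are printed but the firefly/Renilla ratio behind them is not deposited; fold cut for lowering reported inconsistently.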 Raw values vary from plate to plate and are shown uncorrected. Reagents against one gene are numbered here. A plus sign joins genes that one reagent is predicted to hit. Not given: the amount of reagent.
Target gene,reagent,"firefly reporter light, replicate 1","firefly reporter light, replicate 2","Renilla control light, replicate 1","Renilla control light, replicate 2",Call
CG1077,1,4.51e5,6.02e5,1.26e6,1.47e6,inactive
CG1077,2,2.49e5,2.56e5,7.21e5,6.51e5,inactive
CG4593,1,2.12e5,2.72e5,2.22e6,2.52e6,inactive
CG4593,2,4.40e5,5.43e5,1.30e6,1.23e6,inactive
CG14483,1,1.53e5,1.22e5,2.41e6,2.41e6,inactive
boss,1,1.13e5,1.14e5,2.01e6,1.87e6,inactive
boss,2,4.48e5,5.85e5,8.15e5,7.69e5,inactive
CG33296,1,1.85e5,1.49e5,6.16e5,5.32e5,inactive
CG33296,2,1.01e6,8.07e5,1.30e6,1.30e6,inactive
CG9107,1,1.02e6,9.08e5,1.09e6,1.23e6,inactive
CG31957,1,2.26e5,82571,4.80e5,2.60e5,inactive
lncRNA:CR33938,1,7.86e5,8.59e5,2.46e6,1.48e6,inactive
lncRNA:CR33938,2,7.45e5,6.41e5,1.71e6,1.72e6,inactive
CG15198,1,4.14e5,3.41e5,2.57e6,2.99e6,inactive
sofe,1,1.22e5,1.37e5,9.28e5,8.70e5,inactive
CG13744,1,2.29e5,1.57e5,1.33e6,9.77e5,inactive
pho,1,1.61e5,1.31e5,3.21e6,1.91e6,inactive
pho,2,5.12e5,4.34e5,1.91e6,1.61e6,active
gukh,1,1.65e5,2.43e5,2.49e6,2.76e6,inactive
gukh,2,2.11e5,2.30e5,2.56e6,2.46e6,inactive
gukh,3,1.33e5,58624,6.12e5,6.02e5,inactive
lig,1,2.27e5,1.80e5,1.05e6,1.04e6,active
lig,2,1.73e5,1.17e5,6.65e5,4.15e5,inactive
lig,3,3.39e5,3.79e5,6.25e5,6.94e5,inactive
CG30114,1,59968,76006,2.83e5,96599,inactive
CG30114,2,8.64e5,1.13e6,7.82e5,9.47e5,inactive
Vha68-2,1,3.08e5,2.46e5,2.03e6,1.83e6,inactive
Vha68-2,2,3.80e5,4.27e5,1.14e6,1.16e6,inactive
CG31205,1,2.03e5,1.57e5,2.75e5,3.03e5,inactive
CG31205,2,3.16e5,2.89e5,3.24e5,3.33e5,inactive
Nubp1,1,1.05e6,1.02e6,1.73e6,1.60e6,inactive
tup,1,8.15e5,5.80e5,1.94e6,1.89e6,inactive
tup,2,2.83e5,2.37e5,6.77e5,4.62e5,inactive

Limited to “firefly reporter light, replicate 1”, for 10 of the entries above:
CG14483: 1.53e5
boss #1: 1.13e5
boss #2: 4.48e5
CG33296 #1: 1.85e5
CG33296 #2: 1.01e6
CG9107: 1.02e6
CG31957: 2.26e5
lncRNA:CR33938 #1: 7.86e5
lncRNA:CR33938 #2: 7.45e5
CG15198: 4.14e5

The listing continues.
Target gene,reagent,"firefly reporter light, replicate 1","firefly reporter light, replicate 2","Renilla control light, replicate 1","Renilla control light, replicate 2",Call
CG32706 + CG6999,1,3.14e5,3.74e5,2.38e6,2.17e6,inactive
CG32706 + CG6999,2,6.48e5,6.72e5,1.09e6,1.03e6,inactive
CG8117,1,3.52e5,3.48e5,3.65e6,3.15e6,inactive
CG8117,2,1.70e5,1.58e5,4.95e5,6.47e5,inactive
tej,1,72129,75516,1.19e6,1.19e6,inactive
tej,2,1.37e6,1.35e6,1.20e6,1.28e6,inactive
CG34280,1,1.00e6,9.81e5,2.25e6,2.05e6,inactive
CG31231,1,1.39e5,79510,3.12e5,3.01e5,inactive
CG31231,2,2.69e5,4.42e5,5.54e5,9.90e5,inactive
RpL30,1,1.69e5,1.80e5,1.08e6,1.61e6,inactive
lwr,1,9.35e5,1.01e6,1.79e6,1.40e6,inactive
lwr,2,4.48e5,2.51e5,5.27e5,3.59e5,inactive
CG18223,1,2.63e5,1.98e5,2.91e6,2.74e6,inactive
hebe,1,3.15e5,1.63e5,2.03e5,2.19e5,inactive
hebe,2,5.25e5,3.25e5,4.65e6,3.81e6,inactive
hebe,3,9.42e5,1.10e6,2.34e6,2.46e6,inactive
hebe,4,1.18e6,8.54e5,6.74e5,5.91e5,inactive
dpr19,1,1.69e5,1.65e5,1.06e6,1.02e6,inactive
cype,1,87424,69589,7.06e5,7.86e5,inactive
His-Psi:CR31754,1,8.12e5,7.70e5,40264,20811,inactive
Cpr47Ec,1,4.31e5,3.32e5,2.05e6,1.84e6,inactive
CG6153,1,1.05e6,1.09e6,2.00e6,2.83e6,inactive
cher,1,1.12e5,1.23e5,9.06e5,8.32e5,inactive
cher,2,2.61e5,2.52e5,3.57e5,6.23e5,inactive
CG4970,1,3.22e5,2.71e5,2.14e6,1.98e6,inactive
